Reference: patent US8329906B2, “Guanidinyl-substituted hydroxy-6-phenylphenanthridines” (Nycomed GmbH, priority 2004, dated 2012)
Some results were stated once for a whole list of compounds, not compound by compound.

Amino acid sequences for entries named in this document (tags omitted). Residues count along the entry.
UniProt Q07343, 1-564 isoform Q07343-2: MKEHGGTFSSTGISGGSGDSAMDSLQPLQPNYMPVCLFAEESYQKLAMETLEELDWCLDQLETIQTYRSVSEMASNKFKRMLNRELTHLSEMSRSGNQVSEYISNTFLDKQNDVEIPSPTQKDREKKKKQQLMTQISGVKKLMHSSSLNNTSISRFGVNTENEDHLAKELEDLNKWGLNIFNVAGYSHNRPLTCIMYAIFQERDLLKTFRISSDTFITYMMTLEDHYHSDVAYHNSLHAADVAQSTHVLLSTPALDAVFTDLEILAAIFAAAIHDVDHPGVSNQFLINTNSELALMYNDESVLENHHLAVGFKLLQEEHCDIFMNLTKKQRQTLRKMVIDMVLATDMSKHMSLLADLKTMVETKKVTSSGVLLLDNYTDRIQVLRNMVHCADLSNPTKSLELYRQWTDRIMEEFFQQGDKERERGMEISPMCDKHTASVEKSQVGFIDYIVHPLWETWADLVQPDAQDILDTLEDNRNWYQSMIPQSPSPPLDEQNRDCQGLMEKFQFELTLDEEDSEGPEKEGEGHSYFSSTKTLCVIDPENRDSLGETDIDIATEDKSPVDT

Biological target: T1, PDE4B2 (Homo sapiens, UniProt Q07343)
T1 construct: made in house; host or cells: SF21 insect cells (baculovirus, pCR-Bac vector; virus prepared in SF9 cells)
Assay: Inhibition of PDE4 activity, modified [3H]cAMP SPA (scintillation proximity assay) enzyme test
Format: biochemical
Details: recombinant PDE4B2 (SF21 cell supernatant), 0.5 μM cAMP, 15 min at 37° C., 1% DMSO

SMILES | -log IC50 (Inhibition of the PDE4 activity)
CCN(CC)C(=N)NC(=O)c1ccc(C2=N[C@@H]3CC[C@@H](O)C[C@@H]3c3cc(OC(F)F)c(OC)cc32)cc1 (racemic) [Compound 1, N′-(1-{4-[(2RS,4aRS,10bRS)-9-(1,1-Difluoro-methoxy)-2-hydroxy-8-methoxy-1,2,3,4,4a,10b-hexahydro-phenanthridin-6-yl]-phenyl}-methanoyl)-N,N-diethyl-guanidine] | higher than 7.5
COc1cc2c(cc1OC(F)F)[C@H]1C[C@H](O)CC[C@H]1N=C2c1ccc(C(=O)N=C(N)N2CCCCCCC2)cc1 (racemic) [Compound 2, N-(1-Amino-1-azocan-1-yl-methylene)-4-[(2RS,4aRS,10bRS)-9-(1,1-difluoro-methoxy)-2-hydroxy-8-methoxy-1,2,3,4,4a,10b-hexahydro-phenanthridin-6-yl]-benzamide] | higher than 7.5
COc1cc2c(cc1OC(F)F)[C@H]1C[C@H](O)CC[C@H]1N=C2c1ccc(C(=O)NC(=N)NC2CC2)cc1 (racemic) [Compound 3, N-Cyclopropyl-N′-(1-{4-[(2RS,4aRS,10bRS)-9-(1,1-difluoro-methoxy)-2-hydroxy-8-methoxy-1,2,3,4,4a,10b-hexahydro-phenanthridin-6-yl]-phenyl}-methanoyl)-guanidine] | higher than 7.5
COc1cc2c(cc1OC)[C@H]1C[C@H](O)CC[C@H]1N=C2c1ccc(C(=O)N=C(N)N2CCN(C(C)=O)CC2)cc1 (racemic) [Compound 4, N-[1-(4-Acetyl-piperazin-1-yl)-1-amino-methylene]-4-((2RS,4aRS,10bRS)-2-hydroxy-8,9-dimethoxy-1,2,3,4,4a,10b-hexahydro-phenanthridin-6-yl)-benzamide] | higher than 7.5
CCN(CC)C(=N)NC(=O)c1ccc(C2=N[C@@H]3CC[C@@H](O)C[C@@H]3c3cc(OC)c(OC)cc32)cc1 (racemic) [Compound 5, N,N-Diethyl-N′-{1-[4-((2RS,4aRS,10bRS)-2-hydroxy-8,9-dimethoxy-1,2,3,4,4a,10b-hexahydro-phenanthridin-6-yl)-phenyl]-methanoyl}-guanidine] | higher than 7.5
COc1cc2c(cc1OC)[C@H]1C[C@H](O)CC[C@H]1N=C2c1ccc(C(=O)N=C(N)N2CCCCCCC2)cc1 (racemic) [Compound 6, N-(1-Amino-1-azocan-1-yl-methylene)-4-((2RS,4aRS,10bRS)-2-hydroxy-8,9-dimethoxy-1,2,3,4,4a,10b-hexahydro-phenanthridin-6-yl)-benzamide] | higher than 7.5
